The list is a part of this screen's results and no random one: it is rich in T/C values a quarter to a half above the control, in often repeated tests (any T/C) and in doses without a T/C. Further doses and runs are listed elsewhere. T/C is the treated group as % of the vehicle group. Some doses have a count of surviving animals in place of a T/C: the source files T/C as zero there, which appears to mark a toxic dose or a test without result, not a measured value. Some doses without a T/C left all or most animals alive at the check, yet need not have been tolerated: survival well below the control is almost never listed, so the zero probably covers shortened survival too. Survivors were counted at the toxicity check, usually on the fifth day, unless a day is given; later deaths do not show. Schedule codes are those of the source, taken here to give the interval after Q, in days (D) or hours (H), and the number of doses after X. Some entries were tested several times; the results are listed from low to high. For survival time, the PubChem record calls one and a half times the control and up active, and a quarter to a half above the control has no call in these data; cut-offs in other NCI protocols can differ. Some T/C values are followed by the survivors on the day toxicity was checked, most often the fifth; without a count, all were alive then.
Test system: P388 leukemia ip, CD2F1 mice, survival T/C
Assay: NCI In Vivo Anticancer Drug Screen. Data for tumor model P388 Leukemia (intraperitoneal) in CD2F1 (CDF1) mice
Settings: T/C endpoint: median survival time, higher T/C = longer survival
[1] = dose: 100.0 mg/kg/injection, schedule: Q01DX009 (ip), vehicle: saline
[2] = dose: 100.0 mg/kg/injection, schedule: Q01DX009 (ip), vehicle: saline with Tween-80
[3] = dose: 200.0 mg/kg/injection, schedule: Q01DX009 (ip), vehicle: saline with Tween-80
[4] = dose: 50.0 mg/kg/injection, schedule: Q01DX005 (ip), vehicle: Klucel (hydroxypropylcellulose) (HPC)
[5] = dose: 200.0 mg/kg/injection, schedule: Q01DX005 (ip), vehicle: Klucel (hydroxypropylcellulose) (HPC)
[6] = dose: 100.0 mg/kg/injection, schedule: Q01DX005 (ip), vehicle: saline with Tween-80
[7] = dose: 200.0 mg/kg/injection, schedule: Q01DX005 (ip), vehicle: saline with Tween-80
[8] = dose: 100.0 mg/kg/injection, schedule: Q01DX005 (ip), vehicle: Klucel (hydroxypropylcellulose) (HPC)
[9] = dose: 240.0 mg/kg/injection, schedule: Q01DX005 (ip), vehicle: Klucel (hydroxypropylcellulose) (HPC)

`CCCCCCCCCCCCCCCC(=O)Nc1ccn(C2OC(CO)C(O)C2O)c(=O)n1` (configuration not stated) was tested, and the survivor count (dose: 50.0 mg/kg/injection, schedule: Q01DX009 (ip), vehicle: suspension in saline) was 5 of 6 and 6 of 6, the survivor count (dose: 100.0 mg/kg/injection, schedule: Q01DX009 (ip), vehicle: suspension in saline) was 6 of 6 and the survivor count (dose: 200.0 mg/kg/injection, schedule: Q01DX009 (ip), vehicle: suspension in saline) was 2 of 6. The survivor count (dose: 400.0 mg/kg/injection, schedule: Q01DX009 (ip), vehicle: suspension in saline) was 4 of 6.
With `C[CH2][Ge]1([CH2]C)[CH2]CC2(CCN(CCCN(C)C)C2)C[CH2]1` the survivor count [1] was 6 of 6 and the survivor count (dose: 100.0 mg/kg/injection, schedule: Q01DX009 (ip), vehicle: water) was 6 of 6.
`CCN(N=Nc1ccc(OC)cc1)c1ccc(OC)cc1` was tested, and the T/C (dose: 50.0 mg/kg/injection, schedule: Q01DX009 (ip), vehicle: saline with Tween-80) was 133 % of control, the survivor count [2] was 5 of 6 and the survivor count [3] was 0 of 6.
In the case of `CCc1nc(N)nc(N)c1-c1ccc(N2CCCCC2)c([N+](=O)[O-])c1`, the T/C (dose: 200.0 mg/kg/injection, schedule: Q01DX009 (ip), vehicle: distilled water + Tween-80) is reported as 125 % of control and the survivor count (dose: 400.0 mg/kg/injection, schedule: Q01DX009 (ip), vehicle: distilled water + Tween-80) is reported as 6 of 6.
With `CC1(C)CC(C)(C)c2c1oc(=O)c1c3c(oc(=O)c21)C(C)(C)CC3(C)C` the survivor count (dose: 12.5 mg/kg/injection, schedule: Q01DX005 (ip), vehicle: Klucel (hydroxypropylcellulose) (HPC)) was 6 of 6, the survivor count [4] was 5 of 5 and 6 of 6 and the survivor count [5] was 5 of 5.
For `Cc1ccc(OCC2CO2)c(Br)c1` (configuration not stated), the T/C [6] was 130 % of control [2 of 2 alive].
With `CCc1c2oc(C(=O)c3ccc(Cl)cc3)cc2n2ccccc12` the survivor count (dose: 240.0 mg/kg/injection, schedule: Q01DX005 (ip), vehicle: Klucel + Tween-80) was 6 of 6.
`COc1cccc2c1C(=O)c1c(O)c3c(c(O)c1C2=O)CC(O)(/C=N/NS(=O)(=O)c1ccc(C)cc1)CC3OC1CC(N)C(O)C(C)O1` (configuration not stated) was tested, and the T/C (dose: 1.56 mg/kg/injection, schedule: Q01DX009 (ip), vehicle: other) was 131 % of control and the T/C (dose: 3.13 mg/kg/injection, schedule: Q01DX009 (ip), vehicle: other) was 146 % of control.
`CC12CC(=O)CC1(C)CC(=O)C2` (configuration not stated) was tested, and the survivor count [1] was 2 of 6 and the survivor count (dose: 200.0 mg/kg/injection, schedule: Q01DX009 (ip), vehicle: saline) was 0 of 6.
In the case of `c1ccc2c(c1)Cc1c-2nc2ccccc2c1N1CCOCC1`, the T/C [7] is reported as 125 % of control.
With `COc1ccc2c(c1[N+](=O)[O-])CC[C@@H]1[C@@H]2CC[C@]2(C)C(=O)CC[C@@H]12` the survivor count (dose: 400.0 mg/kg/injection, schedule: Q01DX005 (ip), vehicle: saline with Tween-80) was 6 of 6.
In the case of `O=C(c1ccccc1)c1cnc2ccccn12`, the survivor count (dose: 400.0 mg/kg/injection, schedule: Q04DX003 (ip), vehicle: Klucel (hydroxypropylcellulose) (HPC)) is reported as 0 of 6.
With `COc1cccc(C=Nc2cc(C)ccn2)c1O.COc1cccc(C=Nc2cc(C)ccn2)c1O.[Cu]` the survivor count (dose: 50.0 mg/kg/injection, schedule: Q01DX005 (ip), vehicle: saline with Tween-80) was 1 of 6, the survivor count [6] was 0 of 6 and the survivor count [7] was 0 of 6.
For `O=C(O)c1ccnc2c1ccc1ccccc12`, the survivor count (dose: 400.0 mg/kg/injection, schedule: Q04DX002 (ip), vehicle: Klucel (hydroxypropylcellulose) (HPC)) was 0 of 5.
`Clc1nnn(-c2ccccc2)n1` was tested, and the survivor count (dose: 250.0 mg/kg/injection, schedule: Q04DX002 (ip), vehicle: saline with Tween-80) was 5 of 6.
With `N=C(N)n1c(N)nc2ccccc2c1=O` the survivor count [4] was 1 of 5, the survivor count [8] was 0 of 5 and the survivor count [6] was 1 of 5. The survivor count [5] was 0 of 5.
With `CN(C)c1cnc(N)nc1N` the survivor count (dose: 50.0 mg/kg/injection, schedule: Q01DX005 (ip), vehicle: saline) was 4 of 6 and the survivor count (dose: 200.0 mg/kg/injection, schedule: Q01DX005 (ip), vehicle: saline) was 0 of 6.
In the case of `COc1cc2cc(c1Cl)N(C)C(=O)C[C@H](OC(=O)[C@H](C)N(C)C(=O)CC(C)C)[C@]1(C)O[C@H]1[C@H](C)[C@@H]1C[C@@](O)(NC(=O)O1)[C@H](OC)C=C/C=C(\C)C2`, the T/C (dose: 0.8 micrograms/kg/injection, schedule: Q01DX009 (ip), vehicle: saline) is reported as 130 % of control, the T/C (dose: 1.6 micrograms/kg/injection, schedule: Q01DX009 (ip), vehicle: saline) is reported as 135 % of control and the T/C (dose: 3.1 micrograms/kg/injection, schedule: Q01DX009 (ip), vehicle: saline + alcohol) is reported as 144 % of control. For the same molecule, the T/C (dose: 3.1 micrograms/kg/injection, schedule: Q01DX009 (ip), vehicle: saline) was 145 % of control, the T/C (dose: 6.3 micrograms/kg/injection, schedule: Q01DX009 (ip), vehicle: saline) was 145 % of control and the survivor count (dose: 50.0 micrograms/kg/injection, schedule: Q01DX009 (ip), vehicle: saline + alcohol) was 9 of 10. For the same molecule, the survivor count (dose: 100.0 micrograms/kg/injection, schedule: Q01DX009 (ip), vehicle: saline + alcohol) was 5 of 10 and the survivor count (dose: 200.0 micrograms/kg/injection, schedule: Q01DX009 (ip), vehicle: saline + alcohol) was 1 of 10.
For `CCCCCN1C(=O)C2C3CCC(O3)C2C1=O` (configuration not stated), the survivor count [5] was 0 of 6.
In the case of `Oc1ccc(N=Cc2ccccn2)cc1`, the T/C [3] is reported as 125 % of control.
With `COC1N(Cc2ccccc2)C=C2C(=O)NC(=O)C3NC(c4ccccc4)C1(C)C23C` (configuration not stated) the survivor count [8] was 6 of 6.
With `CCC(C)/C(=C\C#N)NCCCN/C(=C/C#N)C(C)CC` (configuration not stated) the survivor count (dose: 30.0 mg/kg/injection, schedule: Q01DX005 (ip), vehicle: Klucel + Tween-80) was 6 of 6, the survivor count (dose: 60.0 mg/kg/injection, schedule: Q01DX005 (ip), vehicle: Klucel (hydroxypropylcellulose) (HPC)) was 6 of 6 and the survivor count [9] was 6 of 6.
In the case of `CCCCOCN(COCCCC)C12CC3CC(CC(C3)C1)C2`, the T/C [2] is reported as 125 % of control and the T/C [3] is reported as 132 % of control.
With `CCOC(=O)C(=C(SC)SC)[n+]1ccc(C)cc1` the survivor count (dose: 25.0 mg/kg/injection, schedule: Q04DX002 (ip), vehicle: saline with Tween-80) was 2 of 6 and the survivor count (dose: 50.0 mg/kg/injection, schedule: Q04DX002 (ip), vehicle: saline with Tween-80) was 0 of 6.
In the case of `CCOc1cccc(/C=N/NC(=O)C(=O)Nc2cccc(C(F)(F)F)c2)c1O`, the survivor count [8] is reported as 6 of 6 and the survivor count [5] is reported as 6 of 6.
With `CCCCn1c(C)nc2c(N)cc(C(F)(F)F)cc21` the survivor count (dose: 12.5 mg/kg/injection, schedule: Q01DX009 (ip), vehicle: Klucel (hydroxypropylcellulose) (HPC)) was 6 of 6.
With `CC(=O)CCC1=C(C)C(=O)C(=O)C(C)=C1O` the survivor count [9] was 0 of 6.
In the case of `O=C(NC1CCCCC1)OCc1c(COC(=O)NC2CCCCC2)c2cccn2c2c1cnn2-c1ccccc1`, the survivor count (dose: 60.0 mg/kg/injection, schedule: Q01DX005 (ip), vehicle: saline with Tween-80) is reported as 5 of 6 and 6 of 6.

Reference: PubChem BioAssay AID330 (DTP/NCI, 2004)
